At least one compound was matched to its structure with a doubt left.
Key:
[1] = Total cholesterol level in ApoE-/- mice on high fat diet under anti-lipid therapies; type: in vivo; details: for effect on cholesterol levels: 4 weeks; for effect on total cholesterol level compared to animals on HFD: one week
[2] = compared with warfarin; cited from earlier work

CC(C)OC(=O)C(C)(C)Oc1ccc(C(=O)c2ccc(Cl)cc2)cc1 [fenofibrate]
effect on cholesterol levels [1]: significantly reduced
effect on total cholesterol level compared to animals on HFD [1]: Neither simvastatin nor fenofibrate had a significant effect

CCC(C)(C)C(=O)O[C@H]1C[C@@H](C)C=C2C=C[C@H](C)[C@H](CC[C@@H]3C[C@@H](O)CC(=O)O3)[C@H]21 [simvastatin]
effect on cholesterol levels [1]: significantly reduced
effect on total cholesterol level compared to animals on HFD [1]: Neither simvastatin nor fenofibrate had a significant effect

CCOC(=O)CN[C@@H](C(=O)N1CC[C@H]1C(=O)NCc1ccc(/C(N)=N\O)cc1)C1CCCCC1 [ximelagatran]
prevention of stroke [2]: equal efficacy as warfarin

From patent US11865195B2, “Evaluation of presence of and vulnerability to atrial fibrillation and other indications using matrix metalloproteinase-based imaging” (Lantheus Medical Imaging, Inc., priority 2011, dated 2024)
